Assay results from patent US20080241125A1 (Dana-Farber, published 2008).
Results are given in words; binding and its absence hold for the method and conditions named. Some binding calls cover weakened binding; strength is not graded here. Where a sequence is shown, tags or fusion partners need not be part of it.

Protein sequences, listed by entry. Tags and fused reporters are not part of them. Lines headed by an entry give the natural chain unless they say otherwise; changes in a name come on top.
UniProt Q9Y6K9: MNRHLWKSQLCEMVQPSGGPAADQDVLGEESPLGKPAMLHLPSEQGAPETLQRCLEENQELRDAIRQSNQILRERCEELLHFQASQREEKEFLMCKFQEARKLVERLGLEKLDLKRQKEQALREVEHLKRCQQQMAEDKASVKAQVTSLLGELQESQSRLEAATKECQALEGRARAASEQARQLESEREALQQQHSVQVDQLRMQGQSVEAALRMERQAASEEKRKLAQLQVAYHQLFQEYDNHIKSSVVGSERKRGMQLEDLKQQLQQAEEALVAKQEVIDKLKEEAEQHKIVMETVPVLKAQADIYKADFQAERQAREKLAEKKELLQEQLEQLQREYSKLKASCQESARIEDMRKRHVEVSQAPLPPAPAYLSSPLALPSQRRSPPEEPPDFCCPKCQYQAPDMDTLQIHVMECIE

What was measured:
purified IKKγ [1] = target: T1, purified IKKγ (human, UniProt Q9Y6K9 1-419, limits assumed); assay: GST pull-down (restated in Example 5)
T1 construct: also called NEMO

purified IKKγ [2] = target: T1, purified IKKγ; assay: GST pull-down: GST-MUC1-CD fragments on glutathione beads with purified IKKγ, anti-IKKγ immunoblot (FIG. 5C)

B1: GST-MUC1-CD(46-72) (peptide, not shown: a dimerising Fc or GST)
chain: YEKVSAGNGGSSLSYTNPAVAATSANL
- binding (purified IKKγ [1]): binds
- binding (purified IKKγ [2]): binds
